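The test systems are human melanoma cell lines, treated with a pair of drugs for 72 h and then stained and imaged. Values are the number of DAPI-stained nuclei as a percentage of the DMSO control: 100 is no effect, lower means fewer cells. Every drug was used at one fixed concentration, the lower of two screened (a fifth of the higher). The file gives one value for each pair and line, without errors, so small differences may be noise.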
Only some of the drugs and lines screened are listed, without regard to their results.
An entry leaves out what has no value listed here.

Drug key:
tanespimycin (0.002 µM): C=CCNC1=C2C[C@@H](C)C[C@H](OC)[C@H](O)[C@@H](C)/C=C(\C)[C@H](OC(N)=O)[C@@H](OC)/C=C\C=C(/C)C(=O)NC(=CC1=O)C2=O
pioglitazone (2 µM): CCc1ccc(CCOc2ccc(CC3SC(=O)NC3=O)cc2)nc1 (centres undefined)
KU-0063794 (0.02 µM): COc1ccc(-c2ccc3c(N4CCOCC4)nc(N4C[C@@H](C)O[C@@H](C)C4)nc3n2)cc1CO
BI-78D3 (0.2 µM): O=c1[nH]nc(Sc2ncc([N+](=O)[O-])s2)n1-c1ccc2c(c1)OCCO2
JZL184 (1 µM): O=C(Oc1ccc([N+](=O)[O-])cc1)N1CCC(C(O)(c2ccc3c(c2)OCO3)c2ccc3c(c2)OCO3)CC1
cisplatin (1.6 µM): N.N.[Cl][Pt][Cl]
crizotinib (0.2 µM): C[C@@H](Oc1cc(-c2cnn(C3CCNCC3)c2)cnc1N)c1c(Cl)ccc(F)c1Cl
A-769662 (2 µM): N#Cc1c(O)c2c(-c3ccc(-c4ccccc4O)cc3)csc2[nH]c1=O
XAV939 (2 µM): Oc1nc(-c2ccc(C(F)(F)F)cc2)nc2c1CSCC2

JZL184 + cisplatin gave C32: 113. With JZL184 + crizotinib the screen read C32: 116. BI-78D3 + JZL184 gave C32: 101. Results for A-769662 + KU-0063794 are C32: 89.9; A375: 111.

With crizotinib + A-769662 the screen read C32: 107. Results for pioglitazone + BI-78D3 are C32: 117. With crizotinib + XAV939 the screen read C32: 102. With cisplatin + KU-0063794 the screen read C32: 106.

With BI-78D3 + A-769662 the screen read C32: 93.6. tanespimycin + JZL184 gave C32: 78.3. pioglitazone + cisplatin gave C32: 99.9. With KU-0063794 + BI-78D3 the screen read C32: 99.5.

cisplatin + A-769662 gave C32: 134. cisplatin + XAV939 gave C32: 92.8. Results for crizotinib + pioglitazone are C32: 111. With pioglitazone + tanespimycin the screen read C32: 96.0.

For KU-0063794 + tanespimycin the values were C32: 89.6. With XAV939 + tanespimycin the screen read C32: 63.3. With KU-0063794 + crizotinib the screen read C32: 93.5.

2 of the entries, repeated:

* KU-0063794 + tanespimycin : C32: 89.6
* BI-78D3 + A-769662 : C32: 93.6

From a melanoma drug combination screen (doi:10.1371/journal.pone.0140310); values rounded.